For four molecules, binding results are on record in publication PMC10258794, “To Fold or Not to Fold: Diastereomeric Optimization of an α-Helical Antimicrobial Peptide” (Journal of Medicinal Chemistry, 2023).

Holding throughout (experiment): crystal structure; co-crystallisation of the C-fucosylated peptide with LecB, sitting drop vapor diffusion, 18 °C; LecB 5 mg/mL in water with 6 mM CaCl2 and MgCl2; peptide at 5:1 molar excess over the LecB monomer; both purified
The target of test [1] is bacterial lectin LecB (UniProt Q9HYN5).
In test [2] the target is FHP8.
For test [3], the target named is FHP31.
The target in test [4] is FHP5.

No constants are given. Whether binding was seen depends on the method and setting. Some binding calls cover weakened binding; strength is not graded here.

B1: FHP8 (peptide)
peptide: KKLLKLLKLLL
modifications: α-L-fucosyl-acetyl on the N-terminus; D-Lys at 2; D-Leu at 3 and 4
B1: the binding result in test [1] and in test [2] was “binds” each time.

B2: FHP31 (peptide)
peptide: KKLLKLLKLLL
modifications: α-L-fucosyl-acetyl on the N-terminus; D-Lys at 1 and 5; D-Leu at 3, 7, 9 and 11
Regarding B2, the binding result in test [1] and in test [3] was “binds” in each case.

B3: FHP5 (peptide)
peptide: KKLLKLLKLLL
modifications: α-L-fucosyl-acetyl on the N-terminus; D-Lys at 1; D-Leu at 11
With B3, the binding entry in test [4] and in test [1] was “binds” each time.

B4: FHP30 (peptide)
peptide: KKLLKLLKLLL
modifications: α-L-fucosyl-acetyl on the N-terminus; D-Lys at 2 and 8; D-Leu at 4, 6 and 10
For B4, the binding entry in test [1] is given as “binds”.
